The list shows a part of the results. Single values are uncertain here, since repeats match poorly.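 Triple-negative MDA-MB-231 breast cancer cells and their brain-metastatic MDA-MB-231BRM derivative each stably expressed empty vector, full-length GLI1 or truncated tGLI1. CellTiter-Blue measured viability at 48 h relative to 1% DMSO vehicle. Compounds reducing viability 20% more in tGLI1 cells than in vector and GLI1 cells counted as tGLI1-selective.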
What was measured:
Assay in all cases: cell viability relative to vehicle (DMSO) control (fraction); higher = more viable cells (less growth inhibition)
Conditions in all cases: treatment time 48 h
MDA-MB-231 GLI1 = tested on: MDA-MB-231 GLI1
MDA-MB-231 Vector = tested on: MDA-MB-231 Vector
MDA-MB-231 tGLI1 = tested on: MDA-MB-231 tGLI1
MDA-MB-231BRM GLI1 = tested on: MDA-MB-231BRM GLI1
MDA-MB-231BRM Vector = tested on: MDA-MB-231BRM Vector
MDA-MB-231BRM tGLI1 = tested on: MDA-MB-231BRM tGLI1

SMILES | cell viability (MDA-MB-231 GLI1; 0.05 µM) | cell viability (MDA-MB-231 GLI1; 0.5 µM) | cell viability (MDA-MB-231 GLI1; 5 µM) | cell viability (MDA-MB-231 Vector; 0.05 µM) | cell viability (MDA-MB-231 Vector; 0.5 µM) | cell viability (MDA-MB-231 Vector; 5 µM) | cell viability (MDA-MB-231 tGLI1; 0.05 µM) | cell viability (MDA-MB-231 tGLI1; 0.5 µM) | cell viability (MDA-MB-231 tGLI1; 5 µM) | cell viability (MDA-MB-231BRM GLI1; 0.05 µM) | cell viability (MDA-MB-231BRM GLI1; 0.5 µM) | cell viability (MDA-MB-231BRM GLI1; 5 µM) | cell viability (MDA-MB-231BRM Vector; 0.05 µM) | cell viability (MDA-MB-231BRM Vector; 0.5 µM) | cell viability (MDA-MB-231BRM Vector; 5 µM) | cell viability (MDA-MB-231BRM tGLI1; 0.05 µM) | cell viability (MDA-MB-231BRM tGLI1; 0.5 µM) | cell viability (MDA-MB-231BRM tGLI1; 5 µM)
CC(C)CC(=O)Nc1n[nH]c2c1CN(C(=O)C1CCN(C)CC1)C2(C)C | 0.916 | 1.28 | 0.176 | 0.86 | 0.657 | 0.245 | 0.325 | 1.19 | 0.206 | 0.536 | 1.11 | 1.09 | 1.25 | 0.999 | 0.649 | 1.1 | 0.618 | 0.889
N#Cc1ccc(C(c2ccc(C#N)cc2)n2cncn2)cc1 [Letrozole] | 1.27 | 1.11 | 1.14 | 1.3 | 1.11 | 1.15 | 0.885 | 1.1 | 0.931 | 1.06 | 1.04 | 0.971 | 1.08 | 1 | 1.03 | 1.05 | 1.06 | 1.06
COc1ccc2cccc(CCNC(C)=O)c2c1 [Agomelatine] | 1.09 | 1.09 | 1.13 | 0.938 | 1.25 | 1.44 | 1.05 | 1.05 | 1.07 | 0.996 | 1 | 0.984 | 1.06 | 0.973 | 0.989 | 0.985 | 1.02 | 0.915
Cn1cc(-c2ccc3ncc(Cc4ccc5ncccc5c4)n3n2)cn1 | 1.2 | 1.19 | 0.99 | 0.872 | 1.1 | 0.959 | 1.11 | 1.03 | 0.835 | 1.03 | 1 | 0.847 | 1.06 | 1.04 | 0.833 | 1.04 | 1.06 | 0.74
COc1cc2/c(=N/c3ccc(Br)cc3F)nc[nH]c2cc1OCC1CCN(C)CC1 [Vandetanib (Zactima)] | 1.18 | 1.05 | 1.12 | 0.851 | 1.23 | 1.14 | 0.926 | 1.09 | 1.07 | 0.977 | 0.957 | 0.941 | 0.96 | 0.94 | 0.945 | 1.02 | 0.995 | 0.963
Cn1cc(-c2ccc3nnc(Sc4ccc5ncccc5c4)n3n2)cn1 | 1.36 | 1.94 | 1.45 | 1.55 | 1.23 | 1.06 | 1.32 | 1.4 | 0.82 | 0.949 | 0.971 | 0.919 | 0.965 | 0.931 | 0.931 | 0.947 | 0.963 | 0.918
NC(=O)Nc1cc(-c2cccc(F)c2)sc1C(=O)N[C@H]1CCCNC1 | 0.924 | 0.182 | 0.0427 | 0.592 | 0.223 | 0.0775 | 0.787 | 0.203 | 0.0483 | 0.764 | 1.26 | 0.995 | 0.831 | 1.13 | 0.682 | 0.705 | 1.16 | 0.848
Cc1c(CN2CCN(C(=O)[C@H](C)O)CC2)sc2c(N3CCOCC3)nc(-c3cnc(N)nc3)nc12 | 1.06 | 0.666 | 0.243 | 1.04 | 0.598 | 0.495 | 1.21 | 0.542 | 0.25 | 0.971 | 1.02 | 0.809 | 0.958 | 1.02 | 0.73 | 1 | 0.987 | 0.667
C#Cc1cccc(Nc2ncnc3cc(OC)c(OCCCCCCC(=O)NO)cc23)c1 | 0.82 | 0.848 | -0.147 | 1.09 | 0.616 | -0.066 | 0.988 | 0.709 | -0.142 | 1.01 | 1.23 | 1.19 | 0.939 | 1.17 | 1.15 | 0.991 | 1.18 | 1.04

Taken from above:
cell viability (MDA-MB-231BRM tGLI1; 0.5 µM) with Cn1cc(-c2ccc3nnc(Sc4ccc5ncccc5c4)n3n2)cn1 is entered as 0.963
cell viability (MDA-MB-231 Vector; 0.05 µM) with NC(=O)Nc1cc(-c2cccc(F)c2)sc1C(=O)N[C@H]1CCCNC1 is entered as 0.592

Source: the supplement of paper PMC9454738
